Assay results: PMC10854748

Protein sequences, listed by entry. Tags and fused reporters are not part of them.
UniProt P06748: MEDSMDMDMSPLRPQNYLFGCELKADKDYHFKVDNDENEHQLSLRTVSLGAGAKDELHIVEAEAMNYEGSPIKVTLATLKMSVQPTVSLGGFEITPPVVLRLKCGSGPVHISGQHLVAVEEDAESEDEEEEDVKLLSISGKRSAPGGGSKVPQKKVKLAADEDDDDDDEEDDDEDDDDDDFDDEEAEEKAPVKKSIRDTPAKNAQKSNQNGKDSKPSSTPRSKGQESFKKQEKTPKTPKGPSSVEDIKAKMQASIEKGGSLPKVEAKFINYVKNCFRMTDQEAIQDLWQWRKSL
UniProt P09874: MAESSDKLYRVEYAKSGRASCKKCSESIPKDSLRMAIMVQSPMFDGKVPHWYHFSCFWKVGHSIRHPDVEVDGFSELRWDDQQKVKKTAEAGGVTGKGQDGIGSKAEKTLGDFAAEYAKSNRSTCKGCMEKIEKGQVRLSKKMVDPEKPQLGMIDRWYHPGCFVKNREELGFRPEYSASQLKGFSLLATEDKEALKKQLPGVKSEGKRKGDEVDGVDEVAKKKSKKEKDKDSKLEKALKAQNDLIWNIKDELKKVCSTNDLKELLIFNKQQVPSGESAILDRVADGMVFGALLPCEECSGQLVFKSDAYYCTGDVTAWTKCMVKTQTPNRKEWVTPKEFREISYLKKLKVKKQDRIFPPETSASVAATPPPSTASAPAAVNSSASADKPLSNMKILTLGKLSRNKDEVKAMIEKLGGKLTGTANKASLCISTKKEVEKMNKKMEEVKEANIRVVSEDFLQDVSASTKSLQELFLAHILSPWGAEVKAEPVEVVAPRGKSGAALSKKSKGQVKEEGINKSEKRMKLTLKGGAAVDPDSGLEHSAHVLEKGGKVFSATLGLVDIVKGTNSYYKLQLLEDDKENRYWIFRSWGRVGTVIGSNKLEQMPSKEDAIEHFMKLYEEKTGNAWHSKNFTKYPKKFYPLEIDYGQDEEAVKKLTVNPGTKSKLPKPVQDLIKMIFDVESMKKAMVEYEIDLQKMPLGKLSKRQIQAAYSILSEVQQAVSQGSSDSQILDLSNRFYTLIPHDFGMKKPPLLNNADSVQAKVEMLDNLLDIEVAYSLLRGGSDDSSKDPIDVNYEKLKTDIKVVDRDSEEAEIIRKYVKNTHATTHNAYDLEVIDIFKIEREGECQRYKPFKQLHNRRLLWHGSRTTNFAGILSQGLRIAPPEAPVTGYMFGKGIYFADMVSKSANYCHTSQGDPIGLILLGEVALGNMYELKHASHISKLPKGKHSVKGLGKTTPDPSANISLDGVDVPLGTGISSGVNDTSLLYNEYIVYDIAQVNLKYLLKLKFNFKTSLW
UniProt P78527: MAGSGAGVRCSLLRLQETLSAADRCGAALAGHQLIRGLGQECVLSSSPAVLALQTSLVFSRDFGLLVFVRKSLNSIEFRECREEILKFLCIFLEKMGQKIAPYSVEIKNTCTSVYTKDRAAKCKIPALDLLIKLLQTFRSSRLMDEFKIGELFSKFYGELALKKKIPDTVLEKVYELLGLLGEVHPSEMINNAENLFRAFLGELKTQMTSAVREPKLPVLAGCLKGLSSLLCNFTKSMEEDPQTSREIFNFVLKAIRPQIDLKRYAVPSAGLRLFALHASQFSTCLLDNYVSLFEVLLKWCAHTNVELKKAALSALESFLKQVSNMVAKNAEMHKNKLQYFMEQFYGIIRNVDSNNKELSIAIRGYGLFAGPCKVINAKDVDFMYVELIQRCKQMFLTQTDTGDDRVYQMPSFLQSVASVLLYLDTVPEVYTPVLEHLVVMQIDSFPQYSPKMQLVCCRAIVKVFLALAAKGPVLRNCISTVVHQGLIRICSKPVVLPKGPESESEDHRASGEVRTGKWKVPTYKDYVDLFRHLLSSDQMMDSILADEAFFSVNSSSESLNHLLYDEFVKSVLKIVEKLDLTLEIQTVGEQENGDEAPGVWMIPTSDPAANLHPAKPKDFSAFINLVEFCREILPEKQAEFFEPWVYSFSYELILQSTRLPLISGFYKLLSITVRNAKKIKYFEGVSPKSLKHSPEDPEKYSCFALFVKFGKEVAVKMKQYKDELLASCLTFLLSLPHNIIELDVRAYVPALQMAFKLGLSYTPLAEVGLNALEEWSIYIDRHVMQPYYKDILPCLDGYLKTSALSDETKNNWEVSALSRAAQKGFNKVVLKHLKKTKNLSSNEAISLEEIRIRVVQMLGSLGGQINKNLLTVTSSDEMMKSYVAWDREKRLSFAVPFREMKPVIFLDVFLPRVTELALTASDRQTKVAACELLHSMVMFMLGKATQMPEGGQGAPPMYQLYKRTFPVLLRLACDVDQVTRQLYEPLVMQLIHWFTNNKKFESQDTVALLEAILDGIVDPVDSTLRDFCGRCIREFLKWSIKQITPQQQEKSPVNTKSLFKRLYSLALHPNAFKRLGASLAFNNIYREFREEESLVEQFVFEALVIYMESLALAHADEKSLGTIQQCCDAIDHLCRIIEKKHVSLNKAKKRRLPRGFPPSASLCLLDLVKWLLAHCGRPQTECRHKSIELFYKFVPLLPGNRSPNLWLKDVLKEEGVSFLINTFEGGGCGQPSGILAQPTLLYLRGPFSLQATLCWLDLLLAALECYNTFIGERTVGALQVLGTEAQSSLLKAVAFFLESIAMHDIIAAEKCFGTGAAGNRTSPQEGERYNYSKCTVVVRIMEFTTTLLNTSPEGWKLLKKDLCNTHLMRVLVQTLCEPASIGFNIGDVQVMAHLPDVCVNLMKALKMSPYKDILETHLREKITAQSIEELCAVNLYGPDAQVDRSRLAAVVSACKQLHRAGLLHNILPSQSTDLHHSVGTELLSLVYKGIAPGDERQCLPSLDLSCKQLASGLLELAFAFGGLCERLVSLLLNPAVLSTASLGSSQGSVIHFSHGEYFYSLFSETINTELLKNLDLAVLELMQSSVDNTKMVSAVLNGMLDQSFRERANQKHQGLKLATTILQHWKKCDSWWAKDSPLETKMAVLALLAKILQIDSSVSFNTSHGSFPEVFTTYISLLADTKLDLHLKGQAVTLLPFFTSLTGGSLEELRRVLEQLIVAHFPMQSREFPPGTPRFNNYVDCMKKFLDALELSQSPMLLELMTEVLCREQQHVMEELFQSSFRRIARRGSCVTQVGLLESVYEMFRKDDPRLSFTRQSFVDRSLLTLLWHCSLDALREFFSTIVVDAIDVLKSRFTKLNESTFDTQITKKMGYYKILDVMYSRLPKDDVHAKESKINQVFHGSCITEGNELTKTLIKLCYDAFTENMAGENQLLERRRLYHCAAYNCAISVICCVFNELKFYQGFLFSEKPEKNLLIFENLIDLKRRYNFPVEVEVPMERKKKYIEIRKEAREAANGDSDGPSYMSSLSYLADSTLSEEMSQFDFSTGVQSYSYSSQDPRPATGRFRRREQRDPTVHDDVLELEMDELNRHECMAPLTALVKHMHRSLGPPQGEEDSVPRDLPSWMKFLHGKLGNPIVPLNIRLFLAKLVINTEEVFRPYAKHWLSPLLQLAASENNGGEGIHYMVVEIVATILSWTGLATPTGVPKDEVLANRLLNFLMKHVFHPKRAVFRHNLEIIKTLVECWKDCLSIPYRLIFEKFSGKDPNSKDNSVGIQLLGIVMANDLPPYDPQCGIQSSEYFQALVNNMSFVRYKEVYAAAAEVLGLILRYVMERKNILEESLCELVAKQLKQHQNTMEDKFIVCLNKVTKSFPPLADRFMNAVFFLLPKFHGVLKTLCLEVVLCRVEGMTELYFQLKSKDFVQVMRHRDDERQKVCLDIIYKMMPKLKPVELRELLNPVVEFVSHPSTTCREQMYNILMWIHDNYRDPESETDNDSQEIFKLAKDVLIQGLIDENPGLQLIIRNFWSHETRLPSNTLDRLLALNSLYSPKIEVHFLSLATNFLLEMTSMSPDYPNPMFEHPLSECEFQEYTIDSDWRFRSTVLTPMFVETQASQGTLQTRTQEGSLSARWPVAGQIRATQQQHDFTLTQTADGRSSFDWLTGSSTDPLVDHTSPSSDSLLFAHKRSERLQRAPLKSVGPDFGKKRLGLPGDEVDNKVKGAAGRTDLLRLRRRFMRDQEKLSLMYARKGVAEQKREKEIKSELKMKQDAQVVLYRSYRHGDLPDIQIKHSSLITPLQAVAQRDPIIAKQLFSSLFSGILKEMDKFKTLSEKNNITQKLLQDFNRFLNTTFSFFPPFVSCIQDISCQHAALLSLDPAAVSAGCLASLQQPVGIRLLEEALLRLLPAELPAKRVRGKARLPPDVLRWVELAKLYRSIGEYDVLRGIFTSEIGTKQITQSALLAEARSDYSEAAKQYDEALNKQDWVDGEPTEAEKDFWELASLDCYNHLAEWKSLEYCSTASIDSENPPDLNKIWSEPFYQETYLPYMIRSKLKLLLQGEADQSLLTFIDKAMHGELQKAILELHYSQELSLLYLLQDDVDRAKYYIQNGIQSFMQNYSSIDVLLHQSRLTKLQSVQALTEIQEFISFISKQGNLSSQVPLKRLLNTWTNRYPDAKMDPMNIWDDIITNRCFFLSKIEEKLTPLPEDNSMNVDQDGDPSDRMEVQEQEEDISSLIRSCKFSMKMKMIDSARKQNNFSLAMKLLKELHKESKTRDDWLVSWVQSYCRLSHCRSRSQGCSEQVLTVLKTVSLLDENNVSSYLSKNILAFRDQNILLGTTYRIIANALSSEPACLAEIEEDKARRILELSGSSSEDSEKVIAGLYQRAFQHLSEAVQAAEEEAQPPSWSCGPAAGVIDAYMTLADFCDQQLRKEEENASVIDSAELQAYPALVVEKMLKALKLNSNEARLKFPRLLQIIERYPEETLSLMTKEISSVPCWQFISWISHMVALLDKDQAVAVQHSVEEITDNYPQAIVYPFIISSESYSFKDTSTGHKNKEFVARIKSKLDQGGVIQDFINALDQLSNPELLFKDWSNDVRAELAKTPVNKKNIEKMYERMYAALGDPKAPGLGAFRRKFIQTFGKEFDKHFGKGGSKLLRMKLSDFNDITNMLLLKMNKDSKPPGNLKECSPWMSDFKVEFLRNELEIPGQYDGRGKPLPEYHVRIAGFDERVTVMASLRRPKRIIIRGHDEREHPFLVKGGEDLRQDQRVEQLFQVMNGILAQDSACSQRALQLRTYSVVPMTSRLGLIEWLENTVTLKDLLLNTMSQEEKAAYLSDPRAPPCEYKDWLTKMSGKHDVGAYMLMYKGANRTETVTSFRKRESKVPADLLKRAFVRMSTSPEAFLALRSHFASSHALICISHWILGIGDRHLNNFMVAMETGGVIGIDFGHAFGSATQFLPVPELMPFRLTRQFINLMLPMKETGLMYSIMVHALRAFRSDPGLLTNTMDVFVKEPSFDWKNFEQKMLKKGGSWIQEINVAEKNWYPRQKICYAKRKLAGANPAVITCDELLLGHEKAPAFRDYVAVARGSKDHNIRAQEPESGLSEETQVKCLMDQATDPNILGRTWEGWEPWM

Target: N-terminally FLAG-HA epitope-tagged human HIRIP3 (e-HIRIP3) (human) (UniProt Q9BW71)
Assay: affinity purification with mass spectrometry; tandem anti-FLAG then anti-HA immunoaffinity purification of e-HIRIP3 from HeLa cytosolic, soluble nuclear and MNase-solubilised chromatin extracts; washes in TGEN-150 (20 mM Tris-HCl pH 7.65, 150 mM NaCl); silver staining and Orbitrap mass spectrometry

binding	Substance
binds	NPM1 (from UniProt P06748 1-294)
binds	PARP1 (from UniProt P09874 1-1014) (enzyme)
binds	DNA-dependent protein kinase catalytic subunit (PRKDC) (from UniProt P78527 1-4128) (enzyme)

No constants are given. Whether binding was seen depends on the method and setting. Binding seen in cells or lysates may run through a third protein. These calls come from enrichment with a bait or labelling near it, and not all partners need be listed. Tags and fused reporters may be left off the sequences shown.
